To fix the notation:
B1: WNT5B, mouse, endogenous (protein, UniProt P22726 18-359)
chain: QLLTDANSWWSLALNPVQRPEMFIIGAQPVCSQLPGLSPGQRKLCQLYQEHMSYIGEGAKTGIRECQHQFRQRRWNCSTVDNTSVFGRVMQIGSRETAFTYAVSAAGVVNAISRACREGELSTCGCSRAARPKDLPRDWLWGGCGDNVEYGYRFAKEFVDAREREKNFAKGSEEQGRALMNLQNNEAGRRAVYKMADVACKCHGVSGSCSLKTCWLQLAEFRKVGDRLKEKYDSAAAMRITRQGKLELANSRFNQPTPEDLVYVDPSPDYCLRNETTGSLGTQGRLCNKTSEGMDGCELMCCGRGYDRFKSVQVERCHCRFHWCCFVRCKKCTEVVDQYVCK
B2: Bcl9 (B-cell lymphoma 9), mouse, endogenous (protein, UniProt Q9D219 1-1425)
chain: MHPSNPKVRSSPSGNTQSSPKSKQEVMVRPPTVMSPSGNPQLDSKFSNQGKPGGSASQSQPSPCDSKSGGHTPKALPGPGGSMGLKNGAGNGAKGKGKRERSISADSFDQRDPGTPNDDSDIKECNSADHIKSQESQHTPHSMTPSTATAPRSSTPSHGQTPAPEPISAQKTPAKVVYVFSTEMANKAAEAVLKGQVETIVSFHIQNISNSKSERSTAPLNTQIPTLRNDPKPLPQQPPAPANQDQNSSQNARLQPTPPIQAPAPKPTAAPRPLDRESPGVENKLIPPVGSPGSSTPLPPDGTGPNSTPNNRAVTPVSQGSNSSSADPKAPPPPPVSGGEPPTLGENPDGLSQEQLEHRERSLQTLRDIQRMLFPDEKEFTAGQTGGPQQNTGVLDGPQKKPDGPIQAMMSQSQSLGKGPGPRTDVGAPFGPQGHRDVPFSPDEMVPPNMSSQSGPIGPDHLDHMTPEQIAWLKLQQEFYEEKRRKQEQVVVQQCSLQDMMVHQHGPRGVVRGPPPPYQMAPGEGWAPGAEPFPDGINISHSLPPRGMAPHPNMPGSQMRLPGFAGMINSEMEGPNVPNPASRPGLSGVSWPDDVPKIPDGRNFPPGQGVFSGPGRGERFPNPQGLSEEMFQQQLAEKQLALPPGMSMEGIRPGMEMNRMIPGSQRHMEPGSNPIFPRIPVEGPLSPSRGDFPKGMPPQIGPGRELEFGMVPGGMKGEVNLNVNMGSSSQMIPQKMREAGAGPEEMMKLRPGSSEMLPAQQKMVPLPFGEHPQQEYGVGPRPFLPMSQGPGSNSGLRNLREPIGPDQRTNSRLSHMPPLPLNPSSNPTSLSTAPPVQRGLGRKPLDISVAGSQVHSPGINPLKSPTMHQVQSPMLGSPSGNLKSPQTPSQLAGMLAGPAAAASIKSPPVLGSAAASPVHLKSPSLPAPSPGWTSSPKPPLQSPGIPPNHKAPLTMASPAMLGSVESGGPPPPTASQPASVNIPGSLPSSTPYPMPPEPTLSQNPLSIMMSRMSKFAMPSSTPLYHDAIKTVASSDDDSPPARSPNLPSMNSMPGMGINTQNPRISGPNPVVPMPTLSPMGMTQPLSHSNQMPSPNAMGPSIPPHGVPMGPGLMSHNPIMGHGSQEPPMVPQGRMGFPQGFPPVQSPPQQVPFPHNGPTGGQGNFPGGIGFPGEGPLGRPSNLPQSSADPALCKPGGPGAPDSFTVLGNSMPSVFTDPDLQEVIRPGATGIPEFDLSRIIPSEKPSQTLQYFPRGEVPGRKQPQGPGPGFSHMQGMMSDQAPRMGLALPGMGGPGPVGTPDIPLGTSPSMPGHNPMRPPAFLQQGMMGPHHRMMSPAQSTVPGPATLMTNPAAAVGMIPGKDRGPAGLYTHPGPVGSPGMMMSMQGMMGPQQNIMIPPQMRPRGMAADVGMGGFSQGPGNPGNMMF
B3: TBC1d2b, mouse, endogenous (protein, UniProt Q3U0J8 1-965)
chain: MPGAGDGVEESCSGGEGAVPGTGSEAGAVAGREPSRLCGYLQKLSGKGPLRGYRSRWFVFDSRRCYLYYFKSPQDALPLGHLDIADACFSYQGRDEAAEPGADPPTHFQVHSAGAVTVLKAPNRELMTYWLQELQQKRWEYCNSLDMMKWDSRTSPTPGDFPKGLVARDTTDIISQHPNPSAEKARTVLAVEAAPGELVGDRAAHQPAPGHPNPINFYSLKQWGNELKNSMSSFRPGRGHSESRRTVFYTNEEWELLDPPPKDLEESLVPEERKKPMPEGSKGVASSGFPFEFGRNPYKGKRPLKDIIGSYKNRHSSSDPLLEGTATSSGSSGGPTKPVPEMQLQIQSQQEELEQLKKDLSSQKELIRLLQQTVRSSQYDKYFTNPQISQGVPGDTLELLHQKDEQILGLSGQLERFGLEKESLQQEVRTLKSKVGELNERLGMLMETIQAKDEVIIKLSACEGSVSSPTLGPSSPLAIPASKDQLELDRLKDSLQGYKSQNKFLNKEILELSALRRNAERRERDLMAKYSSLEAKLCQVESKYLILLQEMKTPVCSEEQGPARDVIAQLLEDALQVESQEQPEQAFVKPHLVSEFDIYGFRTVPDDDEEEKLVAKVRALDLKTLYLTDNQEVSTGVKWENYFASTMNREMACSPELKNLIRAGIPHEHRSKVWKWCVDRHTRKFKDSMEPDYFQTLLQKALEKQNPASKQIELDLLRTLPNNKHYSSPTSEGIQKLRSVLLAFSWRNPDIGYCQGLNRLVAVALLYLDQEDAFWCLVTIVEVFMPRDYYTKTLLGSQVDQRVFRDLLSEKLPRLHTHFEQYKVDYTLITFNWFLVVFVDSVVSDILFKIWDSFLYEGPKVIFRFALALFKYKEEEILKLQDSMSIFKYLRYFTRTILDARKLISISFGDLNPFPLRQIRNRRAYHLEKVRLELTELEAIREDFLRERDTSPDKGELVSDEEEDT
B4: IL-6, mouse, endogenous (protein, UniProt P08505 25-211)
chain: FPTSQVRRGDFTEDTTPNRPVYTTSQVGGLITHVLWEIVEMRKELCNGNSDCMNNDDALAENNLKLPEIQRNDGCYQTGYNQEICLLKISSGLLEYHSYLEYMKNNLKDNKKDKARVLQRDTETLIHIFNQEVKDLHKIVLPTPISNALLTDKLESQKEWLRTKTIQFILKSLEEFLKVTLRSTRQT

Amino acid sequences for entries named in this document (tags omitted).
UniProt P28574: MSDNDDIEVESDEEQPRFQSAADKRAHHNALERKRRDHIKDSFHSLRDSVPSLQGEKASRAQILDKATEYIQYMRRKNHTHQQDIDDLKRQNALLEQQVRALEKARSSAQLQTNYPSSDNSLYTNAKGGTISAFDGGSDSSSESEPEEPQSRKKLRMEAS
UniProt P70188: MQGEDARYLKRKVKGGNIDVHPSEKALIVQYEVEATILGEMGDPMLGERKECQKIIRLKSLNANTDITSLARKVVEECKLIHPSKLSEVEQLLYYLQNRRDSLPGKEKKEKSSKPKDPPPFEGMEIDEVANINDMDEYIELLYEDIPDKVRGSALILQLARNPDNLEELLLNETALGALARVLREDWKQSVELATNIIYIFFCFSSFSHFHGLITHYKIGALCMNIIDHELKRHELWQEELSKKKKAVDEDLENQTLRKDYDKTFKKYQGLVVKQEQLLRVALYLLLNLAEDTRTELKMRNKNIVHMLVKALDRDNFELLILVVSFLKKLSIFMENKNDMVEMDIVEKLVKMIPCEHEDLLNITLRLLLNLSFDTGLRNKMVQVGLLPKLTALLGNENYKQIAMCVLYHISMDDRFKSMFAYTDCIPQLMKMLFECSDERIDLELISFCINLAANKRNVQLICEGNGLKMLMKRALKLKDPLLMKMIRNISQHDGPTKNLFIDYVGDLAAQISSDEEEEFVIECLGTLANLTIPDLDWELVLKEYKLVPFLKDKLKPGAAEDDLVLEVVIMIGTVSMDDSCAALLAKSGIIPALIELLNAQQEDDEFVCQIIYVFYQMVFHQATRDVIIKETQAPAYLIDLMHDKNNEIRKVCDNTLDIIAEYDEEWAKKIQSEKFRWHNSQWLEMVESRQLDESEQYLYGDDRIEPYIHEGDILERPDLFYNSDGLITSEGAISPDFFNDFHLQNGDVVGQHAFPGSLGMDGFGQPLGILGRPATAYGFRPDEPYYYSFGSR
UniProt P63158: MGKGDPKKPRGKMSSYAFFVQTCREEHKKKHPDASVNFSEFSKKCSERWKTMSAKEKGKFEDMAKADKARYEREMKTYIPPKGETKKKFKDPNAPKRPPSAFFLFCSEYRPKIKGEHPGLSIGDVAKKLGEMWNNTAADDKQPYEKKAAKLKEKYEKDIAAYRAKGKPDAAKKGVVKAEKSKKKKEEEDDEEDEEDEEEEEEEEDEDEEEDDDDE
UniProt Q02248: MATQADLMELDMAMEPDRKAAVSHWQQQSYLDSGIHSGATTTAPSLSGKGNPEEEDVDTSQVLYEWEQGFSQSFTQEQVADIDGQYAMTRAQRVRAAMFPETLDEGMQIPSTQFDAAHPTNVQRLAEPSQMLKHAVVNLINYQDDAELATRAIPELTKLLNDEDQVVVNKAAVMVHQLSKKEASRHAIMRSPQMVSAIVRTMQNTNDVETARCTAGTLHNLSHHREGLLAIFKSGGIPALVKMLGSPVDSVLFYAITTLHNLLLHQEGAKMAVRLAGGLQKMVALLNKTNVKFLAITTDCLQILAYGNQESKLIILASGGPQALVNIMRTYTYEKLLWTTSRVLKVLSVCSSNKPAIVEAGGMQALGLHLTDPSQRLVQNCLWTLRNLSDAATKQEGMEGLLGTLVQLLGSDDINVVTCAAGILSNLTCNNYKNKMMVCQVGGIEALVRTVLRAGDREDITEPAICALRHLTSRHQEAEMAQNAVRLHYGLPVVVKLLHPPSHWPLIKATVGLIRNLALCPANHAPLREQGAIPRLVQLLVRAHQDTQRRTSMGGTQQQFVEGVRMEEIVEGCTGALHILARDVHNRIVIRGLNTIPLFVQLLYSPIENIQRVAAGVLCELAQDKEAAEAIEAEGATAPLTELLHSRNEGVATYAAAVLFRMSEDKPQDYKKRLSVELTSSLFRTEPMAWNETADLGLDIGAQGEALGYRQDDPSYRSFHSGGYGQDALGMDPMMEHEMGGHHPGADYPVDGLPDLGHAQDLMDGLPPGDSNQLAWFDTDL

Results are given in words; binding and its absence hold for the method and conditions named. In cells and extracts the contact can be indirect. A yes stands for co-enrichment or nearness to the bait. Other partners may have been found.

Here are results for seven molecules from publication PMC10289747.

The target in the assay is MAX (MYC-associated factor X), mouse, endogenous (mouse (endogenous in mouse liver)) (UniProt P28574). In words: affinity purification with mass spectrometry; immunoprecipitation with an anti-MAX antibody from liver lysates of CCA and saline control mice; three specimens per group pooled.
With “kifap3 (KIF-associated protein 3), mouse, endogenous (from UniProt P70188 1-793)”, the binding result is “binds”.

Take “High-mobility group box-1 (HMGB1), mouse, endogenous (from UniProt P63158 1-215)”: the binding entry is on record as “binds”.

With “β-catenin (catenin beta-1), mouse, endogenous (from UniProt Q02248 1-781)”, the binding entry is given as “binds”.

With B1, the binding entry is on record as “binds”.

As for B2, the binding result is listed as “binds”.

On to B3, for which the binding entry is “binds”.

Take B4: the binding result is “binds”.
